Experimental findings from article PMC9041834 are described below.

Chains of the proteins cited; added tags and fusions are not shown.
UniProt Q18223: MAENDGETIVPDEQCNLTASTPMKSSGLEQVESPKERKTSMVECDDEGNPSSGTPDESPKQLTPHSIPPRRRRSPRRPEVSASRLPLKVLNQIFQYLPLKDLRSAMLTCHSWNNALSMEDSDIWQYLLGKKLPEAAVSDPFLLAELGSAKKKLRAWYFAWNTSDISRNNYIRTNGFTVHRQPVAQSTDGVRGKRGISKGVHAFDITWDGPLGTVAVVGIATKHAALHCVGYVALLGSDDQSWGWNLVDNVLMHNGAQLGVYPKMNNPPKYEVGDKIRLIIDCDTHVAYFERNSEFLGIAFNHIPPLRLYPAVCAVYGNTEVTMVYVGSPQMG
UniProt G5ECH7: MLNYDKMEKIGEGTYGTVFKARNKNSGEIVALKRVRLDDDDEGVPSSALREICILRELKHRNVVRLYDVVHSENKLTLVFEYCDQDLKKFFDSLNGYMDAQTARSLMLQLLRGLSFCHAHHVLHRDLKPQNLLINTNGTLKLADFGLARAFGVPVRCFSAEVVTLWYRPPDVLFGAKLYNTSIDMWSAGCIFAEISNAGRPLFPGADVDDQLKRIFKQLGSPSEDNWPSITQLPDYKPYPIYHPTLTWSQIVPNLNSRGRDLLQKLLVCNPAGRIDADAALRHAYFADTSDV

Results are given in words; binding and its absence hold for the method and conditions named. Binding seen in cells or lysates may run through a third protein. Some binding calls cover weakened binding; strength is not graded here.

In this assay the target is GFP::FSN-1 CRISPR (endogenous FSN-1 N-terminally fused with GFP) (C. elegans) (UniProt Q18223). In words: co-IP; CRISPR-tagged endogenous proteins in whole animal lysates of C. elegans (wild-type background, and rpm-1 LD CRISPR background for the FSN-1 pair); 50 mM Tris HCl pH 7.5, 150 mM NaCl, 1.5 mM MgCl2, 10% glycerol, 0.1% NP-40, 1 mM DTT; anti-FLAG or anti-GFP, protein-G agarose 4 h at 4°C; immunoblot.

With “CDK-5::3xFLAG CRISPR (endogenous CDK-5 C-terminally tagged with 3xFLAG) (from UniProt G5ECH7 1-292) (enzyme)”, the binding result is given as “binds”.
